Assay results published in article PMC12033257.
Results are given in words; binding and its absence hold for the method and conditions named. In cells and extracts the contact can be indirect. Some results given as binding are weak or reduced against the parent protein; the word gives no strength.

The chains behind the UniProt entries cited, without tags or fusion partners. Where a name states a change or a piece, a line headed by the entry shows the natural chain unless it says otherwise. Residues count along the entry.
UniProt P15941, residues 1098-1255: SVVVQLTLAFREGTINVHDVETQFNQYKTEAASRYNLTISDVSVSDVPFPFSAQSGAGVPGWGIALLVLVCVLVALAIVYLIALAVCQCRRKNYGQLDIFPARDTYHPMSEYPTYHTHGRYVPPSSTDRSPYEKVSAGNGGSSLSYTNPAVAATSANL
UniProt Q15648: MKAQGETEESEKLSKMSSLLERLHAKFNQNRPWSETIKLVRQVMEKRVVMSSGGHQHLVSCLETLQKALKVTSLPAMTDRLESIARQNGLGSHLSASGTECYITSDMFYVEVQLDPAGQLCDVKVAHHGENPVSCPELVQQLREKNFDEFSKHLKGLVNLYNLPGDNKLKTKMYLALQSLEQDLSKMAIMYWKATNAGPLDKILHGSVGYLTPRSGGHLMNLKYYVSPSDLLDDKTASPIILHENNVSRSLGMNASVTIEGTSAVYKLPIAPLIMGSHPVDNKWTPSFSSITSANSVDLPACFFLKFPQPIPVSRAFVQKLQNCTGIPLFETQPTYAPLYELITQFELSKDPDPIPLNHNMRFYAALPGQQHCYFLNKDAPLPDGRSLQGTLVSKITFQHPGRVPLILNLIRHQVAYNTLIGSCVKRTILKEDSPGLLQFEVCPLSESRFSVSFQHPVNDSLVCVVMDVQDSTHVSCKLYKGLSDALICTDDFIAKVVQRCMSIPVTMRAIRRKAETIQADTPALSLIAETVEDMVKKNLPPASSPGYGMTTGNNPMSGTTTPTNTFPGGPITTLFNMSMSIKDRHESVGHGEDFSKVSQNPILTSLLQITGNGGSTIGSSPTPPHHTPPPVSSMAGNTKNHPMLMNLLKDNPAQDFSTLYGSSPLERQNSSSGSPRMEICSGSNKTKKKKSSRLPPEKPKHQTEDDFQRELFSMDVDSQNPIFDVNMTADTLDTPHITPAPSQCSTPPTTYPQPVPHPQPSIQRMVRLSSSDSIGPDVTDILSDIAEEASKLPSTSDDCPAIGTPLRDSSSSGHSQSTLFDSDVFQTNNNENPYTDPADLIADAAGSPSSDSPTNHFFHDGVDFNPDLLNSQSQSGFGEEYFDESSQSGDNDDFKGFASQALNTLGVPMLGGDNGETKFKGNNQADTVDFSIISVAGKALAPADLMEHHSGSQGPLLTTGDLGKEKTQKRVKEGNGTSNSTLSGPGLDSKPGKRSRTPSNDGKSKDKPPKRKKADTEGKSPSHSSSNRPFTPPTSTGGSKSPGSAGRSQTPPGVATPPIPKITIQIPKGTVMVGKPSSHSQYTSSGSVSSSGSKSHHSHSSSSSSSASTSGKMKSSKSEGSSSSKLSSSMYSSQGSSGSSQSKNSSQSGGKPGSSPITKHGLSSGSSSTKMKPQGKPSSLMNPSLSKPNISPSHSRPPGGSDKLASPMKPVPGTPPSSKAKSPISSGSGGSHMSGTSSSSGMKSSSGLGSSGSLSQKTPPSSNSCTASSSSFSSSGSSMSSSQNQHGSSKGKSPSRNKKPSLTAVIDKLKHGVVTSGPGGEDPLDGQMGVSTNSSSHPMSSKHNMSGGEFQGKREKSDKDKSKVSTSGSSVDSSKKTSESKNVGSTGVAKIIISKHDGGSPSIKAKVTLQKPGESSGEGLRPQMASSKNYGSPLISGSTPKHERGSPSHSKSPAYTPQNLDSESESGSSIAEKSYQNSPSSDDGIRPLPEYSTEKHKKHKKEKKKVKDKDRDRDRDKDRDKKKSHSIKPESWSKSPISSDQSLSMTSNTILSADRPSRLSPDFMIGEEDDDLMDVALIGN
UniProt Q9Y6Q9: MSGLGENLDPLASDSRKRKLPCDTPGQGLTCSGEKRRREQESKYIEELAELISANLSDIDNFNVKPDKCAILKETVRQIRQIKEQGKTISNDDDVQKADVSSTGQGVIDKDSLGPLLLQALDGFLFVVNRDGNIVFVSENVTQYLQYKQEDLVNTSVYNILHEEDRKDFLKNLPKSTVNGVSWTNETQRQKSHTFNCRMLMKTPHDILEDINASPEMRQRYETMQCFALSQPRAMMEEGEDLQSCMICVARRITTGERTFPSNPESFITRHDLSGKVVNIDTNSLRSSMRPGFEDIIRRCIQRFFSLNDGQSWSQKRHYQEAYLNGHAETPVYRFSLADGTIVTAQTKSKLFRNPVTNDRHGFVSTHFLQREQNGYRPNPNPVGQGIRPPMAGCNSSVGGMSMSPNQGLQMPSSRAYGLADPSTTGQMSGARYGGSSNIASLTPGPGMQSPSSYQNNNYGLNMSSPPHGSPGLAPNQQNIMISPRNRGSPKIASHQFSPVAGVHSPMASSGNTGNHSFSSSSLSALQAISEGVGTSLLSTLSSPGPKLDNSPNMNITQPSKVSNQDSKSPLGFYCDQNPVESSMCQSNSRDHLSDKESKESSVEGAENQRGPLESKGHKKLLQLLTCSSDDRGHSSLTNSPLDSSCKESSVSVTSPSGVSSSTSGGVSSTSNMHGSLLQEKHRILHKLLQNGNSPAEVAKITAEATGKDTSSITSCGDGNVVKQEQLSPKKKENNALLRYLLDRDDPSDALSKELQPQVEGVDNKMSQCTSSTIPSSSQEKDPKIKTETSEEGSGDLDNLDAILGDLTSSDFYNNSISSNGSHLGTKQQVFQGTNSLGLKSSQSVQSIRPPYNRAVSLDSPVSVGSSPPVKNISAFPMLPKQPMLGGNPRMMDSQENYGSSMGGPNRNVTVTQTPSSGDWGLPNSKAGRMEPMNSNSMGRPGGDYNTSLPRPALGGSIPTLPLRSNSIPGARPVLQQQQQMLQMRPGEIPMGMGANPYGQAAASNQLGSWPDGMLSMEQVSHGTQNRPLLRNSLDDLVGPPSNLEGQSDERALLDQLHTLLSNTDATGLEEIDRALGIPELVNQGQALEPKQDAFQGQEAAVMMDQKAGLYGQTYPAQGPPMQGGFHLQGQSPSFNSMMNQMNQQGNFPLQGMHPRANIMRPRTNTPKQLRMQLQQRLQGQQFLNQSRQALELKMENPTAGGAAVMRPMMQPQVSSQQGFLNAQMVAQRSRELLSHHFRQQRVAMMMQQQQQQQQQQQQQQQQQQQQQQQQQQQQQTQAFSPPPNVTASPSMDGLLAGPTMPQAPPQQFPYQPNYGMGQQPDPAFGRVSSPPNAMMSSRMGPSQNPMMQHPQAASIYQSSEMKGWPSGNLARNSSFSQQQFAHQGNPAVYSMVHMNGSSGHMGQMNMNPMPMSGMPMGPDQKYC
UniProt P03372: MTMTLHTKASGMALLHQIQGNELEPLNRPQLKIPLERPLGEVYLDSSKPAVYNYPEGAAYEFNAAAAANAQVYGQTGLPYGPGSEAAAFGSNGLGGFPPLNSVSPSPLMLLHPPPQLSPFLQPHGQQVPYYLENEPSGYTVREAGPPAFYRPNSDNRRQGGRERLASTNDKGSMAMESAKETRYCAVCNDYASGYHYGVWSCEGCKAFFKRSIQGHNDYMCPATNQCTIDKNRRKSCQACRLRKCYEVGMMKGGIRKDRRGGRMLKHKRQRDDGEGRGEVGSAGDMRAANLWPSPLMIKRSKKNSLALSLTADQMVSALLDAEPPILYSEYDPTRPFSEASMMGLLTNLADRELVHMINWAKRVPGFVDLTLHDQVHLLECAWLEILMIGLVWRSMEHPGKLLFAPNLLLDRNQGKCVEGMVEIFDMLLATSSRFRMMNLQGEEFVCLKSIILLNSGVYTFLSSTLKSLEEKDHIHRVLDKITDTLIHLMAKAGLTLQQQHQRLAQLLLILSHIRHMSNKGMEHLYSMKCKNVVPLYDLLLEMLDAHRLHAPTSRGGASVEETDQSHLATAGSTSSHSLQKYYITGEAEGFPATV
UniProt P49137: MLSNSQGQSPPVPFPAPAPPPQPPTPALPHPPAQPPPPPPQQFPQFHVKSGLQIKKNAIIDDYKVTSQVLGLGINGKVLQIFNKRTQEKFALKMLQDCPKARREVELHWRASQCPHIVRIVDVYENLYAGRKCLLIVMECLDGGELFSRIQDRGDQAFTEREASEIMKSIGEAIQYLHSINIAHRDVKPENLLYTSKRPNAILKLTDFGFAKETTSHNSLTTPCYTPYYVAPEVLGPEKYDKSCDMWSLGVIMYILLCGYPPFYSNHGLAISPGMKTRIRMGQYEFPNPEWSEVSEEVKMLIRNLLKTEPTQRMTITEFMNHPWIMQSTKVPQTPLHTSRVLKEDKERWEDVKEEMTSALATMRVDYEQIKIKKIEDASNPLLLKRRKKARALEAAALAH

Columns and labels:
[1] = target: MUC1-C (MUC1 C-terminal subunit) (human (endogenous in MCF-7)) (UniProt P15941); experiment: co-IP; nuclear lysates from MCF-7/ER(Y537S) cells grown in hormone deprived conditions for 2 days, without and with E2 stimulation; precipitated with anti-MUC1-C (control IgG) on Dynabeads Protein G; immunoblot
[2] = target: MUC1-C (MUC1 C-terminal subunit) (human (endogenous in MCF-7)) (UniProt P15941); experiment: co-IP; nuclear lysates from MCF-7 cells treated with 100 nM 17beta-estradiol (E2) for 3 h; precipitated with anti-MUC1-C, anti-SRC-3 or anti-MED1 (control IgG) on Dynabeads Protein G; immunoblot
[3] = target: mediator subunit 1 (MED1) (human (endogenous in MCF-7)) (UniProt Q15648); experiment: as above
[4] = target: MUC1-C (MUC1 C-terminal subunit) (human (endogenous in MCF-7)) (UniProt P15941); experiment: co-IP; Supplemental Fig. S2g, legend not shown; cells, antibody and treatment not stated; the methods describe only co-immunoprecipitation from nuclear lysates
[5] = target: steroid receptor coactivator 3 (SRC-3/AIB1/NCOA3) (human (endogenous in MCF-7)) (UniProt Q9Y6Q9); experiment: co-IP; nuclear lysates from MCF-7 cells treated with 100 nM 17beta-estradiol (E2) for 3 h; precipitated with anti-MUC1-C, anti-SRC-3 or anti-MED1 (control IgG) on Dynabeads Protein G; immunoblot

Substance	binding [1]	binding [2]	binding [3]	further results
ER(Y537S) (from UniProt P03372 1-595)	binds			
estrogen receptor alpha (ER) (from UniProt P03372 1-595)		binds	binds	
steroid receptor coactivator 3 (SRC-3/AIB1/NCOA3) (from UniProt Q9Y6Q9 1-1424)	binds	binds		
mitogen-activated protein (MAP) kinase-activated protein kinase 2 (MAPKAPK2; MK2) (from UniProt P49137 1-400)				binding [4]: binds
MUC1-C (MUC1 C-terminal subunit) (from UniProt P15941 1098-1255)			binds	binding [5]: binds
mediator subunit 1 (MED1) (from UniProt Q15648 1-1581)	binds	binds		
